We go through one molecule from paper PMC6692053.

Results are given in words; binding and its absence hold for the method and conditions named.

This test concerns the target recombinant TdfJ on the surface of E. coli (Neisseria gonorrhoeae). The test is described as follows: far-Western, overlay or dot blot; competition: whole cells on nitrocellulose probed with S100A7-HRP with simultaneous addition of 10-fold molar excess of unlabeled human S100A7, mouse S100A7 or S100A12, colorimetric detection; only the binder purified.

B1: mouse S100A7 (protein, UniProt Q6S5I3 1-108)
chain: MPDTPVEDSLFQIIHCFHHYAAREGDKETLSLEELKALLLDSVPRFMDTLGRRQPYYITELFRAADKNKDNQICFDEFLYILGKLVKDYHLQFHRQLCAHYCTEHSLY
As for B1, the binding entry is given as “no binding (tested: 10-fold molar excess over S100A7-HRP)”.
